Measurements from PubChem BioAssay (EPA / NIEHS).
For some assays here: Most of the hits are listed elsewhere, so they are rarer here than in the full data. Results filed as inconclusive are left out. This is a selection; strong and weak results do not stand in their true shares. Active and inactive are the calls of the source. How the source made its calls, unless noted: active means hit-call score of the fitted dose curve at least 0.9, where 1 is the maximum; inactive means score below 0.9.

By UniProt entry, the sequences of proteins in these tests, tags left out.
UniProt P08684, whole entry, looked up: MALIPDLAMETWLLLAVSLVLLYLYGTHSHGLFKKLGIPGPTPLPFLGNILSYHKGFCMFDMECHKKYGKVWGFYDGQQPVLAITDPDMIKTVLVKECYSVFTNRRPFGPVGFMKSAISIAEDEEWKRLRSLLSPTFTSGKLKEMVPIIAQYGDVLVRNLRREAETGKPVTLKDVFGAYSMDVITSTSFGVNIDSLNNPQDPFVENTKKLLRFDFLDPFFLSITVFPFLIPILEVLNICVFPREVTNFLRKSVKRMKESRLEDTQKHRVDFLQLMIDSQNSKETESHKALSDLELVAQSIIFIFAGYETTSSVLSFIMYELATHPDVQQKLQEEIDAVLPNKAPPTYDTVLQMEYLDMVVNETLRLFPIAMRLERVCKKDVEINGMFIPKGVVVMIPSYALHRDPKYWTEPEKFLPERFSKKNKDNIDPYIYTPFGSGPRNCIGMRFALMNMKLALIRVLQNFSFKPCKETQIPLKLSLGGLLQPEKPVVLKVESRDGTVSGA

What was measured:
[1] = BSK_CASM3C_SRB: Viability Assessment in the BioMAP Diversity Plus: CASM3C Assay (AID 2283050); details: primary human coronary artery smooth muscle cells;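 further: total protein by SRB staining as cytotoxicity measure in parallel cultures; cells exposed to compound for 24 h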
[2] = read-out: Matrix Metallopeptidase 1 (MMP1), MMP1 (gene 4312); experiment: BSK_hDFCGF_MMP1: BioMAP Diversity Plus: hDFCGF Assay for Matrix Metallopeptidase 1 (MMP1) Biomarker Activity (AID 2283064); details: actives raise or lower the signal; primary human foreskin fibroblasts
Method in brief: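 Primary human foreskin fibroblasts exposed to chemicals for 24 h; MMP1 measured by ELISA. Cytotoxicity tracked by SRB staining in parallel cultures; bidirectional fit relative to DMSO.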

[3] = CEETOX_H295R_OHPREG: CeeTox H295R High-throughput Steroidogenesis Assay for OH-Pregnenolone (OHPREG) (AID 2283434); details: actives raise or lower the signal
[4] = CEETOX_H295R_CORTIC: CeeTox H295R High-throughput Steroidogenesis Assay for Corticosterone (CORTIC) (AID 2283437); details: actives raise or lower the signal;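 further: human H295R adrenal cells prestimulated with forskolin before chemical exposure; corticosterone secreted into medium quantified by mass spectrometry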
Method in brief: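 H295R adrenal cells prestimulated 48 hours with 10 uM forskolin, then exposed 48 hours to chemical in 0.1% DMSO. Corticosterone in medium measured by HPLC-MS/MS after MTBE extraction; MTT viability in the same wells; bidirectional fit versus DMSO.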

[5] = read-out: Cytochrome P450 3A4 (Homo sapiens) (UniProt P08684); experiment: LTEA_HepaRG_CYP3A4: Life Technologies and Expression Analysis (LTEA) Assay for CYP3A4 using HepaRG (AID 2283487); details: actives raise or lower the signal; mRNA level, 48 h
Method in brief: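 CYP3A4 transcript measured by TaqMan qRT-PCR and normalized to three housekeeping genes after 48 h chemical exposure of human HepaRG cells. Top concentration 100 uM, half-log steps, 0.5% DMSO vehicle; gain or loss fitted against DMSO baseline.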

[6] = read-out: Heat shock 70 kDa protein 1 (HSPA1A), gene 3303; experiment: LTEA_HepaRG_HSPA1A: Life Technologies and Expression Analysis (LTEA) Assay for Heat shock 70 kDa protein 1 (HSPA1A) using HepaRG (AID 2283502); details: actives raise or lower the signal; mRNA level, 48 h
Method in brief: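 Differentiated human HepaRG cells in serum-free induction medium were exposed in duplicate for 48 h to eight concentrations (top 100 uM, half-log steps, 0.5% DMSO). HSPA1A mRNA was quantified by qRT-PCR, normalized to ACTB, GAPDH and POLR2A, and fitted bidirectionally against DMSO.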

[7] = read-out: Intercellular Adhesion Molecule 1 (ICAM1), ICAM1 (gene 3383); experiment: LTEA_HepaRG_ICAM1: Life Technologies and Expression Analysis (LTEA) Assay for Intercellular Adhesion Molecule 1 (ICAM1) using HepaRG (AID 2283507); details: actives raise or lower the signal; mRNA level, 48 h
Method in brief: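 Gain or loss of transcript in HepaRG hepatic cells is quantified by qRT-PCR after 48 h chemical exposure (up to 100 uM, half-log steps), with DMSO as baseline.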

[8] = read-out: Interleukin 6 Receptor (IL6R), IL6R (gene 3570); experiment: LTEA_HepaRG_IL6R: Life Technologies and Expression Analysis (LTEA) Assay for Interleukin 6 Receptor (IL6R) using HepaRG (AID 2283510); details: actives raise or lower the signal; mRNA level, 48 h
Method in brief: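 Differentiated human HepaRG cells, plated 48 h then switched to serum-free induction medium, were dosed in duplicate for 48 h at eight half-log concentrations up to 100 uM in 0.5% DMSO. IL6R mRNA quantified by qRT-PCR, normalized to ACTB/GAPDH/POLR2A; bidirectional fit versus DMSO.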

[9] = read-out: Keratin 19 (KRT19), KRT19 (gene 3880); experiment: LTEA_HepaRG_KRT19: Life Technologies and Expression Analysis (LTEA) Assay for Keratin 19 (KRT19) using HepaRG (AID 2283512); details: actives raise or lower the signal; mRNA level, 48 h
Method in brief: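 Gene-expression endpoint in the human liver line HepaRG after 48 h exposure to up to 100 uM test chemical with 0.5% DMSO vehicle; KRT19 mRNA by qRT-PCR, analyzed bidirectionally versus DMSO.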

[10] = Tanguay_ZF_120hpf_AXIS_legacy: (Legacy) Oregon State University Tanguay Lab 120 Hour Post-fertilization zebrafish Assay for Body Axis Malformation (AID 2283635; active means hit-call score of the fitted dose curve at least 0.9, where 1 is the maximum;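 further: potency for an increased fraction of larvae scored with body axis malformation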)
Method in brief: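 Static 6–120 hpf chemical exposure of dechorionated wild-type 5D zebrafish, one per well at 28C; morphology endpoint scored binary at 120 hpf relative to DMSO control.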

[11] = CCTE_Simmons_CellTiterGLO_HEK293T: Viability Assessment in CCTE's Assays for Thyroperoxidase (TPO) Inhibition, Simmons Lab (AID 2283665; active means hit-call score of the fitted dose curve at least 0.9, where 1 is the maximum;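 further: cells exposed to compound for 24 h before readout; actives reduce ATP signal below DMSO vehicle meaning cytotoxicity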)
Method in brief: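 HEK293T cells in DMEM with 1% FBS were dosed with 8 concentrations (5 nM–87.5 uM final, 0.5% DMSO) for 24 hr at 37C; ATP content was read by CellTiter-Glo luminescence, loss-of-signal versus DMSO, three biological replicates.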

[12] = ACEA_AR_agonist_AUC_viability: ACEA Biosciences xCELLigence Real-Time Cell Analysis on Androgen Receptor Agonism for Viability (AID 2283775; active means hit-call score of the fitted dose curve at least 0.9, where 1 is the maximum;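 further: viability read 80 hours after compound addition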)
Method in brief: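 Read-out is area under the impedance curve at 80 h post-dose in 22Rv1 cells, with DMSO as baseline and signal loss taken as reduced viability. Compounds ran in duplicate from 100 uM final.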

[13] = TOX21_TR_RXR_BLA_Agonist_Followup_viability: Viability Assessment in the Tox21 Thyroid Hormone Receptor beta Retinoid X Receptor alpha (RXRa) Agonism Beta-lactamase (BLA) Follow-Up Assay (AID 2283970; active means hit-call score of the fitted dose curve at least 0.9, where 1 is the maximum)
[14] = CCTE_Shafer_MEA_dev_bursting_electrodes_number: CCTE's Neural Network Formation Assay for Number of Bursting Electrodes, Shafer Lab (AID 2284043; active means hit-call score of the fitted dose curve at least 0.9, where 1 is the maximum;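 further: potency is for loss of bursting electrodes relative to DMSO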)
Method in brief: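 Primary rat cortical neurons plated on 16-electrode MEA wells, exposed from day 0 with compound renewed at DIV 5 and 9. Electrodes bursting ≥1 burst per 2 min counted on days 5, 7, 9 and 12; trapezoidal AUC across days, fitted for loss versus DMSO.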

[15] = CCTE_Mundy_HCI_Cortical_Synap_Neur_Matur_NeuriteLength: CCTE's Synaptogenesis and Neurite Maturation Assay in rat cortical cells for Neurite Length, Mundy Lab (AID 2284214)
Method in brief: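 Rat primary cortical cells were plated, treated with AraC at DIV 5 to arrest glial growth, then chemical-dosed with media change at DIV 7 through DIV 12. Fixed cells stained for MAP2, synaptophysin and Hoechst; neurite length quantified by high-content imaging.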

[16] = CCTE_Mundy_HCI_hN2_NOG_NeuronCount: CCTE's Neurite Outgrowth Assay in human hN2 cells for Neuron Count, Mundy Lab (AID 2284221; active means hit-call score of the fitted dose curve at least 0.9, where 1 is the maximum)
Method in brief: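 Read-out is the number of betaIII-tubulin-positive neurons imaged by automated high-content analysis, with DMSO as negative control.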

[17] = CCTE_Deisenroth_DEVTOX-GLR_Pluri_CellCount: Viability Assessment in CCTE's DevTox GLR-Pluri Assay Evaluation of Total Cell Counts, Deisenroth Lab (AID 2284430)
Method in brief: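 RUES2-GLR human pluripotent cells, seeded 24 h, then differentiated 48 h with two chemical exposures 24 h apart; 10-point series 1 nM - 200 uM. Fixed, nuclear-stained, imaged (5 fields/well); nuclei count as % change vs 0.2% DMSO.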

Measured: AC50

CC1=C(/C=C/C(C)=C/C=C/C(C)=C/C(=O)O)C(C)(C)CCC1
inactive: [1] | [3] | [8] | [9] | [13] | [15] | [16]
active: [2] 31.7 µM | [4] 5 µM | [5] 2.87 µM | [6] 9.92 µM | [7] 9.92 µM | [10] 0.254 µM | [11] 23.9 µM | [12] 86.1 µM | [14] 17 µM | [17] 13 µM
